Source: patent US7579150B1, “Mobile RNA acts as a signal to regulate plant growth and development” (Iowa State University Research Foundation, Inc., priority 2004, dated 2009)
Results are given in words; binding and its absence hold for the method and conditions named. For some assays here: In cells and extracts the contact can be indirect. Some results given as binding are weak or reduced against the parent protein; the word gives no strength. Sequences can lack the tags named with a protein.

Tests used:
[1] = target: T1, GAD:POTH1 fusion protein (full-length POTH1 fused to the GAL4 activation domain) (Solanum tuberosum); experiment: co-immunoprecipitation of in vitro translated 35S-labelled proteins with anti-GAD antibodies, SDS-PAGE and autoradiography
T1 sequence (chain, 35S-methionine labelled (in vitro translation)): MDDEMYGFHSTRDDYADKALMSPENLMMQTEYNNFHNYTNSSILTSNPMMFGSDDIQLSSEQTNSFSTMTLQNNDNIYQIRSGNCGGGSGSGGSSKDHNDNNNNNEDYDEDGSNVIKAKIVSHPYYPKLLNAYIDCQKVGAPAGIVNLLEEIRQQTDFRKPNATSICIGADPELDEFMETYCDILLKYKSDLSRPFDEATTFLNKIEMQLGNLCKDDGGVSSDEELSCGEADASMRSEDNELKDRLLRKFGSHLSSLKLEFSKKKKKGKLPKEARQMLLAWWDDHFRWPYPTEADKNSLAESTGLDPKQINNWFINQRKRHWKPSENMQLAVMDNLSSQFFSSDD

[2] = target: T1, GAD:POTH1 fusion protein (full-length POTH1 fused to the GAL4 activation domain) (Solanum tuberosum); experiment: immunoprecipitation of in vitro transcribed/translated proteins

B1: StBEL-05 protein synthesized in vitro from pGEM11Z (other)
chain: MYYQGTSDNTNIQADHQQRHNHGNSNNNNIQTLYLMNPNNYMQGYTTSDTQQQQQLLFLNSSPAASNALCHANIQHAPLQQQHFVGVPLPAVSLHDQINHHGLLQRMWNNQDQSQQVIVPSSTGVSATSCGGITTDLASQLAFQRPIPTPQHRQQQQQQGGLSLSLSPQLQQQISFNNNISSSSPRTNNVTIRGTLDGSSSNMVLGSKYLKAAQELLDEVVNIVGKSIKGDDQKKDNSMNKESMPLASDVNTNSSGGGESSSRQKNEVAVELTTAQRQELQMKKAKLLAMLEEVEQRYRQYHHQMQIIVLSFEQVAGIGSAKSYTQLALHAISKQFRCLKDAIAEQVKATSKSLGEEEGLGGKIEGSRLKFVDHHLRQQRALQQIGMMQPNAWRPQRGLPERAVSVLRAWLFEHFLHPYPKDSDKIMLAKQTGLTRSQVSNWFINARVRLWKPMVEEMYLEEVKNQEQNSTNTSGDNKNKETNISAPNEEKHPIITSSLLQDGITTTQAEISTSTISTSPTAGASLHHAHNFSFLGSFNMDNTTTTVDHIENNAKKQRNDMHKFSPSSILSSVDMEAKARESSNKGFTNPLMAAYAMGDFGRFDPHDQQMTANFHGNNGVSLTLGLPPSENLAMPVSQQNYLSNDLGSRSEMGSHYNRMGYENIDFQSGNKRFPTQLLPDFVTGNLGT
modifications: 35S-methionine labelled (in vitro translation)
notes: BEL cDNA cloned into pGEM11Z under the T7 promoter; also called p11Z-5
binding [1]: binds
binding [2]: binds
